Reference: PubChem BioAssay AID2685 (National Center for Advancing Translational Sciences (NCATS), 2010)
Some of the results follow. The main result of the screen is listed elsewhere. These columns were measured beside it and carry no call. The list favours compounds with an active or inconclusive main result. Words in brackets tell the shape of the fitted curve; partial curves, single points and poor fits give uncertain potencies.

Assay: qHTS Assay for Lipid Storage Modulators in Drosophila S3 Cells;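 on cell number change: cells counted by Cell Tracker Red CMTPX staining in the red channel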
Conditions: BODIPY lipid droplet fluorescence, 18-24 h; for cell number change: measured here: cell count max response, cells fed with added oleic acid
Method in brief: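 Drosophila S3 cells got compounds at several concentrations plus oleic acid (400 uM solution). Laser-scanning cytometry with 488 nm excitation read lipid droplets at 500-530 nm and cells at 575-640 nm. Percent activity was relative to 20 uM Triacsin C.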

[1] = measured here: lipid fluorescence (Fed channel) AC50, cells fed with added oleic acid
[2] = measured here: cell number channel AC50, cells fed with added oleic acid

| SMILES | cell number change | AC50 [1] | AC50 [2] |
| --- | --- | --- | --- |
| CCC1CN(C(=O)N2CCC(C(=O)NCc3ccco3)CC2)c2ccccc2O1 (centres undefined) | -0.885% | 29.1 µM [rising, single point] |  |
| O=C(CN1C(=O)NC2(CCc3ccccc32)C1=O)NCc1ccc(F)cc1 (centres undefined) |  | 32.6 µM [falling, single point] |  |
| Cc1nn(-c2ccccc2)c2c1/C(=N/O)CC(C)(C)C2 | -6.32% | 0.651 µM [falling, full curve, poor fit] |  |
| CC(C)(C)C(=O)Nc1cc2c3c(c1)CCN3C(=O)CC2 | -20.9% | 0.651 µM [falling, partial curve, poor fit] |  |
| Cc1[nH]c(=O)c(C#N)cc1-c1ccccc1 | -24.8% | 14.6 µM [falling, partial curve] |  |
| Cc1ccc(N2C(=O)CCC2(C(N)=O)c2ccccc2)cc1 (centres undefined) | -20.8% | 3.66 µM [falling, full curve] |  |
| Cn1cnnc1SCC(=O)Nc1ccccc1Sc1ccccc1 | 7.06% |  | 0.146 µM [rising, full curve, poor fit] |
| COCCNC(=S)N/N=C(\C)c1ccccc1OC | 40.6% | 7.31 µM [rising, partial curve] | 8.2 µM [rising, partial curve] |
| CCSc1nnc(NC(=O)Cc2cccc(OC)c2)s1 | 17.1% | 6.51 µM [falling, single point] |  |
| CS(=O)(=O)c1cccc(S(=O)(=O)N2CCN(c3ccccn3)CC2)c1 | -8.52% | 4.11 µM [falling, single point] |  |
| Cc1ccc(/C=N/N2CCOCC2)s1 |  |  | 0.116 µM [falling, single point] |
| CS(=O)Cc1cc(Sc2ccccc2)nc(-c2cccnc2)n1 (centres undefined) | 80.6% | 4.11 µM [rising, full curve, poor fit] | 3.66 µM [rising, full curve] |
| CCn1c(C)c(Br)c(=O)c(C(=O)OC)c1-c1ccc(Cl)cc1 | -6.03% | 3.26 µM [falling, single point] |  |
| Nn1c(SCC(=O)Nc2ccc(F)cc2F)nnc1-c1cccnc1 | -15.7% | 4.61 µM [falling, full curve, poor fit] |  |
| FC(F)C(F)(F)c1cc(-c2ccc(Cl)cc2)n[nH]1 | -42.4% | 23.1 µM [falling, single point] | 18.4 µM [falling, single point] |
| CC(C)N(C(=O)CSc1nc(COc2ccccc2)nc2ccccc12)C(C)C | -2.57% |  |  |
| Cc1ccc(Cn2nc(C)c3cc(C(=O)OCC(N)=O)sc32)cc1 | 36% |  | 25.9 µM [rising, single point] |
| O=C1NCCN1Cc1ccccc1 | -33.6% |  | 2.59 µM [falling, full curve] |
| Cn1c(=O)c2sccc2n2c(CCCC(=O)NCCc3ccc(S(N)(=O)=O)cc3)nnc12 | -3.42% |  |  |
| Cc1ccc(S(=O)(=O)N(Cc2ccccc2)c2ccccc2C(=O)Nc2ccccc2C(=O)NCc2ccco2)cc1 | 33.5% | 0.231 µM [rising, full curve] | 20.6 µM [rising, single point] |

| SMILES | cell number change | AC50 [1] | AC50 [2] |
| --- | --- | --- | --- |
| CC(C)N(Cc1nc(-c2ccccc2)no1)C(=O)c1ccc2c(c1)OCO2 | 159% | 29.1 µM [rising, single point] | 29.1 µM [rising, single point] |
| CN(CC(=O)Nc1ccc(Cl)c(C(F)(F)F)c1)CC(=O)NC1CCCCC1 | -10.6% | 6.51 µM [rising, single point] |  |
| COc1ccc(C(c2c(C)[nH]n(C(N)=S)c2=O)C(C#N)C#N)cc1 (centres undefined) | -42.5% | 23.1 µM [falling, single point] | 29.1 µM [falling, single point] |
| CC(C)C(NC(=O)CCNC(=O)c1ccc([N+](=O)[O-])cc1)c1nc2ccccc2[nH]1 (centres undefined) | 8.33% | 3.26 µM [rising, single point] |  |
| COc1ccc(OC(C)C(=O)N2CCCc3ccccc32)cc1 (centres undefined) | -29.9% |  | 0.82 µM [rising, single point] |
| CNc1nc(-c2c[nH]c3ccccc23)cs1 | -43.1% | 20.6 µM [falling, single point] | 29.1 µM [falling, single point] |
| CONc1nc2nonc2nc1NOC | 6.41% | 29.1 µM [falling, single point] |  |
| O=C(c1cc(S(=O)(=O)N2CCCCC2)ccc1Cl)N1CCOCC1 | -11.3% | 2.31 µM [rising, partial curve] |  |
| CSC(C(=O)c1cc2ccccc2o1)c1ccccc1 (centres undefined) | -21.1% | 0.651 µM [falling, single point] |  |
| CCOC(=O)c1cnc2nc(Cc3ccccc3)[nH]n2c1=O | 6.64% |  |  |
| COc1ccc(/C=C/C(=O)OCCNC(=O)c2ccncc2)cc1OC |  | 4.11 µM [rising, single point] |  |
| CS(=O)(=O)N(CC(=O)NCc1ccc2c(c1)OCO2)C1CCCCC1 | -10.2% | 16.4 µM [falling, single point] |  |
| CNc1nnc(SCC(=O)c2c(N)n(C3CC3)c(=O)[nH]c2=O)s1 | 18% |  |  |
| COCCn1ccc(O)c(Cc2ccccc2)c1=O | -91.4% | 29.1 µM [falling, single point] | 32.6 µM [falling, single point] |
| Cc1c(CCC(=O)O)c(=O)oc2c(C)c(OCc3cc4c(cc3Cl)OCO4)ccc12 | 12.5% |  |  |
| Cc1cccc(NC(=S)Nc2c(C)n(C)n(-c3ccccc3)c2=O)c1C | -9.89% | 5.8 µM [falling, partial curve, poor fit] |  |
| COc1cccc(NC(=O)c2ccccc2F)c1 | 30% | 11.6 µM [rising, partial curve] | 14.6 µM [rising, single point] |
| CSCc1ccc(C(=O)Nc2ccc(C(N)=O)cc2)cc1 | 100% |  | 29.1 µM [rising, single point] |
| Cc1c(O)nc(SC2CC(=O)N(c3ccccc3)C2=O)[nH]c1=O (centres undefined) | 3.25% | 29.1 µM [rising, single point] |  |

One compound at a time, from the list above.
CCC1CN(C(=O)N2CCC(C(=O)NCc3ccco3)CC2)c2ccccc2O1 (centres undefined) is listed with cell number change: -0.885%; AC50 [1]: 29.1 µM [rising, single point]
CS(=O)(=O)N(CC(=O)NCc1ccc2c(c1)OCO2)C1CCCCC1 is listed with cell number change: -10.2%; AC50 [1]: 16.4 µM [falling, single point]
COCCNC(=S)N/N=C(\C)c1ccccc1OC is listed with cell number change: 40.6%; AC50 [1]: 7.31 µM [rising, partial curve]; AC50 [2]: 8.2 µM [rising, partial curve]
